{"source": "patent US20050203172A1", "about": "“Novel compounds” (priority 2002, published 2005)", "key": {"[1]": {"target": "T1, nitric oxide synthase from induced murine macrophage cell line J774A-1 (Mus musculus, UniProt P29477)", "T1 construct": "The reaction is started by adding 50 μl of cell lysate (prepared as above); endogenous in cells; host or cells: J774A-1 murine macrophage cell line, induced with LPS and IFN-gamma; crude cell lysate", "assay": "Screen 1: nitric oxide synthase inhibition, 3H-L-arginine to 3H-L-citrulline conversion, lysate of induced J774A-1 cells", "type": "biochemical", "settings": "J774A-1 cell lysate after LPS/IFNg induction, 1 hour at room temperature; read-out: IC50 (concentration of drug substance which gives 50% enzyme inhibition)"}, "recombinant human iNOS": {"target": "T2, recombinant human iNOS (Homo sapiens, UniProt P35228)", "T2 construct": "made in house", "assay": "Screen 2: recombinant human NO synthase inhibition, L-[3H]citrulline formation", "type": "biochemical", "settings": "recombinant human iNOS expressed in E. coli, 60 min pre-incubation with NADPH, 3 μM [3H]arginine; read-out: IC50 against the iNOS enzyme"}}, "note": "Counter-ions that a name gives are not always drawn. Some of these results come from one statement about several compounds together.", "data": [{"smiles": "Cc1cc(S[C@H](C[C@H](N)CO)c2ccccc2)c(C#N)s1", "note": "[Example 2, 3-[[(1R,3S)-3-Amino-4-hydroxy-1-phenylbutyl]thio]-5-methyl-2-thiophenecarbonitrile Oxalate]", "values": [{"measurement": "IC50", "setting": "[1]", "value": "< 10", "unit": "µM"}, {"measurement": "IC50", "setting": "recombinant human iNOS", "value": "< 10", "unit": "µM"}]}, {"smiles": "N#Cc1sccc1S[C@H](C[C@H](N)CO)c1ccccc1", "note": "[Example 1, 3-[[(1R,3S)-3-Amino-4-hydroxy-1-phenylbutyl]thio]-2-thiophenecarbonitrile oxalate]", "values": [{"measurement": "IC50", "setting": "[1]", "value": "< 10", "unit": "µM"}, {"measurement": "IC50", "setting": "recombinant human iNOS", "value": "< 10", "unit": "µM"}]}]}
